Experimental data: article PMC6412927
No constants are given. Whether binding was seen depends on the method and setting. Some entries that bind do so weakly or less than the wild type. Each block holds one binder with its values, some of them ahead of it.

How the values were obtained:
Assay in all cases: two-hybrid; LexA-DB fused PREs (pGilda) with B42-AD fused PAR1 or PAR2 (pYesTrp2) in S. cerevisiae EGY48; growth on SD/Gal/Raf (-Ura/-His/-Trp/-Leu) induction medium, 30 °C, images after 3 d
[1] = molecular target: T1, PACLOBUTRAZOL-… 3 (PRE3) (Arabidopsis thaliana) (UniProt Q9CA64)
T1 sequence: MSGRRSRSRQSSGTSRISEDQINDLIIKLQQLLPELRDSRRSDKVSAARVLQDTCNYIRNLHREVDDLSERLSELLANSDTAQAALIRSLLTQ

[2] = molecular target: T2, PACLOBUTRAZOL-… 1 (PRE1) (Arabidopsis thaliana) (UniProt Q9FLE9)
T2 sequence: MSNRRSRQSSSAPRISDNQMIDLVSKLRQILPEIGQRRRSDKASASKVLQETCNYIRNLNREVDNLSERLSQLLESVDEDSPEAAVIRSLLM

[3] = molecular target: T3, PACLOBUTRAZOL-… 5 (PRE5) (Arabidopsis thaliana) (UniProt Q9LJX1)
T3 sequence: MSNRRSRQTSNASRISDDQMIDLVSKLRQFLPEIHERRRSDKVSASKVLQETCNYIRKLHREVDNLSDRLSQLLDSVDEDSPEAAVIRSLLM

[4] = molecular target: T4, PACLOBUTRAZOL-… 2 (PRE2) (Arabidopsis thaliana) (UniProt Q9LXG5)
T4 sequence: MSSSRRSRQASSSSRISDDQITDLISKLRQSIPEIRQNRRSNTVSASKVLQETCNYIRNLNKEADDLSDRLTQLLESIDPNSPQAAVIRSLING

[5] = molecular target: T5, PACLOBUTRAZOL-… 6 (PRE6) (Arabidopsis thaliana) (UniProt Q8GW32)
T5 sequence: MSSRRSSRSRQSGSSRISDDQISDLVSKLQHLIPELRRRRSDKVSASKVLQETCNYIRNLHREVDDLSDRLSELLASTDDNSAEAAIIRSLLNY

[6] = molecular target: T6, PACLOBUTRAZOL-… 4 (PRE4) (Arabidopsis thaliana) (UniProt F4JCN9)
T6 sequence: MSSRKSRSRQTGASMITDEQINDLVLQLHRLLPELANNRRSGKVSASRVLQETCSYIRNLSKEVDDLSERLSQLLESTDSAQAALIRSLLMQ

binding [1]: binds
binding [2]: binds
binding [3]: binds
binding [4]: binds
binding [5]: binds
binding [6]: binds
B1: PAR2 (protein, UniProt Q9LXR7 1-118)
chain: MEKTLATSHTKRSSPPSPSSAVNTSSTGFNRRTRQRLSDATASVSETDVEDEDEDEEGVEEKIEALQTIVPGGTELGVDALFEETASYILALQCQINAIKVLTTFLERCEKKDMKFGG

binding [1]: binds
binding [2]: binds
binding [3]: binds
binding [4]: binds
binding [5]: binds
binding [6]: binds
B2: PAR1 (protein, UniProt Q9SJH0 1-118)
chain: MEETLATPDATRRSLSPSCSATVKSRAAGFERRTKRRLSETNASVREDREEAEEEEDEVKEKIEALQRIIPGGAALGVDALFEETAGYILSLQCQIKTIKVLTSFLQRIDQEDMKFGG
